According to patent US9907307B2, “Aromatic compound and uses thereof” (SUMITOMO CHEMICAL COMPANY, LIMITED, priority 2014, dated 2018):
Some entries share one result that the patent states for a list of compounds.

Legend:
[1] = tested on: wheat rust fungus (Puccinia recondita); experiment: Wheat rust foliar spray test on wheat (Test Example 3); assay type: in vivo; details: 500 ppm foliar spray, wheat (SHIROGANE), inoculated 5 days after spraying
[2] = tested on: barley net blotch fungus (Pyrenophora teres); experiment: Barley net blotch foliar spray test on barley (Test Example 4); assay type: in vivo; details: 200 ppm foliar spray, barley (NISHINOHOSHI), inoculated 2 days after spraying

Q: For `COC(=O)Nc1cccc(C)c1COc1ccc(-c2cc(Cl)n(C)n2)cc1C` [present compound 2], which “area of lesion relative to that on an untreated plant” value [1] is on record?
A: Its value is ≤ 30%.

Q: And the “area of lesion relative to that on an untreated plant” value [2]?
A: The value was ≤ 30%.
